# Assay results: the supplement of paper PMC8256030
# Values joined by “and” are separate entries in the source; they are usually repeats but may differ in a detail not shown here. Equal values may be shown once. This is one part of the list. Single values are uncertain here, since repeats match poorly.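 HEK293T cells were given each compound shortly before transfection with a reporter in which red mCherry is followed by the SARS-CoV-2 frameshift element and then GFP in the −1 frame, so GFP appears only after frameshifting.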
# System: SARS-CoV-2 -1 PRF reporter mCherry-FSE-GFP(-1)
# Assay: percent effect, decrease of GFP/mCherry ratio (-1 PRF reporter) relative to controls; higher = stronger frameshift inhibition
# Conditions: 10 µM; 24 h; HEK293T
row,Structure (SMILES),percent effect
1,N=c1ccn2c(n1)O[C@H]1[C@H](O)[C@@H](CO)O[C@H]12 [ancitabine],0.311% and -1.96%
2,O=C(CCCN1CCN(c2ccccn2)CC1)c1ccc(F)cc1 [azaperone],1.32% and -6.99%
3,C#C[C@]1(O)CC[C@H]2[C@@H]3[C@H](C)CC4=C(CCC(=O)C4)[C@H]3CC[C@@]21C [tibolone],0.216% and -2.79%
4,C[C@]12C=CC(=O)C=C1CC[C@H]1[C@@H]3C[C@@H](O)[C@](O)(C(=O)CO)[C@@]3(C)C[C@H](O)[C@@]12F [triamcinolone],-5.86% and 10.4%
5,CC/C(=C(\c1ccccc1)c1ccc(OCCN(C)C)cc1)c1ccccc1 [tamoxifen],0.601% and -0.499% and 3.46%
6,CN[C@@H]1[C@H](O[C@H]2[C@H](O[C@H]3[C@H](O)[C@@H](O)[C@H](N=C(N)N)[C@@H](O)[C@@H]3N=C(N)N)O[C@@H](C)[C@]2(O)C=O)O[C@@H](CO)[C@H](O)[C@H]1O [Streptomycin],-1.82% and 4.82%
7,O=C(c1ccc(OCCN2CCCCC2)cc1)c1c(-c2ccc(O)cc2)sc2cc(O)ccc12 [raloxifene],0.798% and -5.1%
8,CC1(C)O[C@@H]2C[C@H]3[C@@H]4CCC5=CC(=O)C=C[C@]5(C)[C@H]4[C@@H](O)C[C@]3(C)[C@]2(C(=O)CO)O1,-5.29% and -8.83%
9,C[C@@H]1C[C@H]2[C@@H]3C[C@H](F)C4=CC(=O)C=C[C@]4(C)[C@@]3(F)[C@@H](O)C[C@]2(C)[C@@]1(O)C(=O)CO [flumetasone],-2.13% and -1.65%
10,CC/C(=C(/CC)c1ccc(O)cc1)c1ccc(O)cc1 [diethylstilbestrol],-0.886% and -9.03%
11,CCCc1nc(C(C)(C)O)c(C(=O)OCc2oc(=O)oc2C)n1Cc1ccc(-c2ccccc2-c2nnn[nH]2)cc1 [olmesartan medoxomil],2% and -5.63% and 0.1%
12,COc1cc2ncnc(Nc3ccc(F)c(Cl)c3)c2cc1OCCCN1CCOCC1 [gefitinib],-5.79% and -1.13%
13,O=C(O)c1cccnc1Nc1cccc(C(F)(F)F)c1 [niflumic acid],0.433% and -3.3%
14,COC(=O)C1=C(C)NC(C)=C(C(=O)OCCN(C)Cc2ccccc2)C1c1cccc([N+](=O)[O-])c1 (stereo not given) [nicardipine],2.31% and 1.48%
15,Nc1nc(N)nc(-c2cc(Cl)ccc2Cl)n1 [irsogladine],-1.88% and -1.98%
16,CCCCCN(C)CCC(O)(P(=O)(O)O)P(=O)(O)O [ibandronic acid],5.66% and 0.428%
17,COc1ccc(C(=O)NCc2ccc(OCCN(C)C)cc2)cc1OC [itopride],-0.968% and -7.69%
18,CN[C@@H]1[C@@H](O[C@H]2O[C@H](CO)[C@@H](N)[C@H](O)[C@H]2O)OC2C[C@@H](N)[C@@H](O[C@H]3[C@H](O)[C@@H](O)[C@H](N)C[C@@H]3N)OC2[C@@H]1O (stereo not given in full) [apramycin],2.68% and -9.01%
19,C[C@@H]1CN(c2c(F)c(N)c3c(=O)c(C(=O)O)cn(C4CC4)c3c2F)C[C@H](C)N1 [sparfloxacin],-12.3% and -9.04%
20,Cc1cn([C@@H]2C[C@@H](O)[C@H](CO)O2)c(=O)[nH]c1=O [telbivudine],-4.22% and -3.45%

row,Structure (SMILES),percent effect
1,Clc1ccc(CCC(Cn2ccnc2)Sc2c(Cl)cccc2Cl)cc1 (stereo not given) [butoconazole],0.147% and -8.19%
2,Cc1c(N)nc([C@H](CC(N)=O)NC[C@H](N)C(N)=O)nc1C(=O)N[C@H](C(=O)N[C@H](C)[C@@H](O)[C@H](C)C(=O)N[C@H](C(=O)NCCc1nc(-c2nc(C(=O)NCCC[S+](C)C)cs2)cs1)[C@@H](C)O)[C@@H](OC1OC(CO)C(O)C(O)C1OC1OC(CO)C(O)C(OC(N)=O)C1O)c1cnc[nH]1 (stereo not given in full) [Bleomycin],-6.33% and 3.48%
3,CC(=O)Nc1ccc(CC(=O)O)cc1 [actarit],1.11% and 3.88%
4,CC[N+](CC)(CC)CCOc1cccc(OCC[N+](CC)(CC)CC)c1OCC[N+](CC)(CC)CC [gallamine triethiodide],-2.71% and -2.74%
5,CC(C)COCC(CN(Cc1ccccc1)c1ccccc1)N1CCCC1 (stereo not given) [bepridil],1.24% and 2%
6,NS(=O)(=O)c1cc(C(=O)O)c(NCc2ccco2)cc1Cl [furosemide],-1.76% and -6.02%
7,CC(C)NCC(O)COc1ccc(CC(N)=O)cc1 (stereo not given) [atenolol],2.87% and -10.2%
8,Nc1ccn([C@@H]2O[C@H](CO)[C@@H](O)[C@@H]2O)c(=O)n1 [cytarabine],-2.56% and -12.1%
9,C[C@@H]1O[C@@H]1P(=O)(O)O [fosfomycin],-1.43% and -3.25% and -1.5%
10,CCCCN1CCCCC1C(=O)Nc1c(C)cccc1C (stereo not given) [bupivacaine],1.07% and -6.13%
11,CCN1CCCC1CNC(=O)c1cc(S(=O)(=O)CC)c(N)cc1OC (stereo not given) [amisulpride],6.04% and -6.25%
12,NC[C@@H]1O[C@H](O[C@H]2[C@@H](O)[C@H](O[C@@H]3[C@@H](O)[C@H](N)C[C@H](N)[C@H]3O[C@H]3O[C@H](CO)[C@@H](O)[C@H](O)[C@H]3N)O[C@@H]2CO)[C@H](N)[C@@H](O)[C@@H]1O [paromomycin],-0.81% and -5.01% and -1.64%
13,CC(=O)OCC[N+](C)(C)C [acetylcholine chloride],-0.0948% and 0.975%
14,COCCOC(=O)C1=C(C)NC(C)=C(C(=O)OC(C)C)C1c1cccc([N+](=O)[O-])c1 (stereo not given) [nimodipine],0.0676% and -3.32%
15,CCN(CC)C(=O)/C(C#N)=C/c1cc(O)c(O)c([N+](=O)[O-])c1 [entacapone],-0.182% and -3.22% and -1.68%
16,c1ccc(-c2ccc(C(c3ccccc3)n3ccnc3)cc2)cc1 (stereo not given) [bifonazole],2.27% and -6.76%
17,Clc1ccc2c(c1)CCc1cccnc1C2=C1CCNCC1 [desloratadine],-3.19% and -17.4%
18,COc1ccc(C2CNC(=O)C2)cc1OC1CCCC1 (stereo not given) [rolipram],-5.44% and -0.602%
19,Nc1nc(Cl)nc2c1ncn2[C@@H]1O[C@H](CO)[C@@H](O)[C@@H]1F [clofarabine],1.55% and 2.88%
20,Cc1ccc(C(=O)Nc2ccc(S(=O)(=O)O)c3cc(S(=O)(=O)O)cc(S(=O)(=O)O)c23)cc1NC(=O)c1cccc(NC(=O)Nc2cccc(C(=O)Nc3cc(C(=O)Nc4ccc(S(=O)(=O)O)c5cc(S(=O)(=O)O)cc(S(=O)(=O)O)c45)ccc3C)c2)c1 [suramin sodium],-0.805% and -18%

# 12 compounds out of the list, arranged by length of the SMILES, low to high.
row,Structure (SMILES),percent effect
3,CC(=O)Nc1ccc(CC(=O)O)cc1 [actarit],1.11% and 3.88%
9,C[C@@H]1O[C@@H]1P(=O)(O)O [fosfomycin],-1.43% and -3.25% and -1.5%
10,CCCCN1CCCCC1C(=O)Nc1c(C)cccc1C (stereo not given) [bupivacaine],1.07% and -6.13%
18,COc1ccc(C2CNC(=O)C2)cc1OC1CCCC1 (stereo not given) [rolipram],-5.44% and -0.602%
17,Clc1ccc2c(c1)CCc1cccnc1C2=C1CCNCC1 [desloratadine],-3.19% and -17.4%
5,CC(C)COCC(CN(Cc1ccccc1)c1ccccc1)N1CCCC1 (stereo not given) [bepridil],1.24% and 2%
1,Clc1ccc(CCC(Cn2ccnc2)Sc2c(Cl)cccc2Cl)cc1 (stereo not given) [butoconazole],0.147% and -8.19%
8,Nc1ccn([C@@H]2O[C@H](CO)[C@@H](O)[C@@H]2O)c(=O)n1 [cytarabine],-2.56% and -12.1%
19,Nc1nc(Cl)nc2c1ncn2[C@@H]1O[C@H](CO)[C@@H](O)[C@@H]1F [clofarabine],1.55% and 2.88%
4,CC[N+](CC)(CC)CCOc1cccc(OCC[N+](CC)(CC)CC)c1OCC[N+](CC)(CC)CC [gallamine triethiodide],-2.71% and -2.74%
20,Cc1ccc(C(=O)Nc2ccc(S(=O)(=O)O)c3cc(S(=O)(=O)O)cc(S(=O)(=O)O)c23)cc1NC(=O)c1cccc(NC(=O)Nc2cccc(C(=O)Nc3cc(C(=O)Nc4ccc(S(=O)(=O)O)c5cc(S(=O)(=O)O)cc(S(=O)(=O)O)c45)ccc3C)c2)c1 [suramin sodium],-0.805% and -18%
2,Cc1c(N)nc([C@H](CC(N)=O)NC[C@H](N)C(N)=O)nc1C(=O)N[C@H](C(=O)N[C@H](C)[C@@H](O)[C@H](C)C(=O)N[C@H](C(=O)NCCc1nc(-c2nc(C(=O)NCCC[S+](C)C)cs2)cs1)[C@@H](C)O)[C@@H](OC1OC(CO)C(O)C(O)C1OC1OC(CO)C(O)C(OC(N)=O)C1O)c1cnc[nH]1 (stereo not given in full) [Bleomycin],-6.33% and 3.48%
